Data set [1] can be described thus: general procedure: Fmoc solid-phase peptide synthesis; 2-chlorotrityl chloride resin (2-CTC), capacity 1.0-1.5 mmol/g; HBTU, HOBt, DIPEA.
A short description of data set [2]: general procedure: Fmoc solid-phase peptide synthesis; 2-CTC resin; HBTU, HOBt, DIPEA. Conditions: whole synthesis.
[3] abbreviates: conjugation step, HPLC-MS (Shimadzu Prominence LC-20, LCMS-2020, Phenomenex Luna C18).
The mark [4] stands for this setting: late stage modification step, HPLC-MS (Shimadzu Prominence LC-20, LCMS-2020, Phenomenex Luna C18).

In data set [1] (conjugation step), “(3S,7S,25S,28S,31S)-31-(4-aminobutyl)-25-benzyl-12-(4-bromobenzyl)-36-(4-(4-(((S)-1-(((S)-1-((4-((5S,8S,11S,12R)-11-((S)-sec-butyl)-12-(2-((S)-2-((1R,2R)-3-(((1S,2R)-1-hydroxy-1-phenylpropan-2-yl)amino)-1-methoxy-2-methyl-3-oxopropyl)pyrrolidin-1-yl)-2-oxoethyl)-5,8-diisopropyl-4,10-dimethyl-3,6,9-trioxo-2,13-dioxa-4,7,10-triazatetradecyl)phenyl)amino)-1-oxo-5-ureidopentan-2-yl)amino)-3-methyl-1-oxobutan-2-yl)amino)-4-oxobutyl)-1H-1,2,3-triazol-1-yl)-28-(4-hydroxybenzyl)-5,13,20,23,26,29,32-heptaoxo-4,6,12,19,24,27,30,33-octaazahexatriacontane-1,3,7-tricarboxylic acid” had a conjugation yield of 41%. For the same substance, in data set [1] (setting [3]), the “final LC-MS purity” value came out at 99.9%. As to “(3S,7S,25S,28S,31S)-31-(4-aminobutyl)-25-benzyl-36-(4-(4-(((S)-1-(((S)-1-((4-((5S,8S,11S,12R)-11-((S)-sec-butyl)-12-(2-((S)-2-((1R,2R)-3-(((1S,2R)-1-hydroxy-1-phenylpropan-2-yl)amino)-1-methoxy-2-methyl-3-oxopropyl)pyrrolidin-1-yl)-2-oxoethyl)-5,8-diisopropyl-4,10-dimethyl-3,6,9-trioxo-2,13-dioxa-4,7,10-triazatetradecyl)phenyl)amino)-1-oxo-5-ureidopentan-2-yl)amino)-3-methyl-1-oxobutan-2-yl)amino)-4-oxobutyl)-1H-1,2,3-triazol-1-yl)-12-(4-carboxybenzyl)-28-(4-hydroxybenzyl)-5,13,20,23,26,29,32-heptaoxo-4,6,12,19,24,27,30,33-octaazahexatriacontane-1,3,7-tricarboxylic acid”, the conjugation yield in data set [1] (conjugation step) is recorded as 55%. For the same substance, the “final LC-MS purity” value in data set [1] (setting [3]) worked out at 99.9%. Turning to “(3S,7S,25S,28S,31S)-31-(4-aminobutyl)-36-azido-25,28-dibenzyl-12-(4-carboxybenzyl)-5,13,20,23,26,29,32-heptaoxo-4,6,12,19,24,27,30,33-octaazahexatriacontane-1,3,7-tricarboxylic acid”, the “final LC-MS purity” value in data set [1] (setting [4]) is on record as 99.9%. In data set [1] (late stage modification step, on 5d), this substance showed a step yield of 76%. For the substance “(3S,7S,25S,28S,31S)-31-(4-aminobutyl)-36-azido-25-benzyl-12-(3-chlorobenzyl)-28-(4-hydroxybenzyl)-5,13,20,23,26,29,32-heptaoxo-4,6,12,19,24,27,30,33-octaazahexatriacontane-1,3,7-tricarboxylic acid”, the “final LC-MS purity” value in data set [1] (setting [4]) amounted to 99.9%. Further, in data set [1] (late stage modification step, on 5a), the step yield is 76%.

As to “(3S,7S,25S,28S,31S)-31-(4-aminobutyl)-36-azido-25-benzyl-12-(4-bromobenzyl)-28-(4-hydroxybenzyl)-5,13,20,23,26,29,32-heptaoxo-4,6,12,19,24,27,30,33-octaazahexatriacontane-1,3,7-tricarboxylic acid”, the “final LC-MS purity” value in data set [1] (setting [4]) is 99.9%. The same substance displayed a step yield in data set [1] (late stage modification step, on 5b) of 80%. Regarding “(3S,7S,25S,28S,31S)-31-(4-aminobutyl)-36-azido-25-benzyl-12-(4-carboxybenzyl)-28-(4-hydroxybenzyl)-5,13,20,23,26,29,32-heptaoxo-4,6,12,19,24,27,30,33-octaazahexatriacontane-1,3,7-tricarboxylic acid”, the “final LC-MS purity” value in data set [1] (setting [4]) is reported as 99.0%. In addition, the step yield in data set [1] (late stage modification step, on 5c) was 80%.

“(3S,7S,25S,28S,31S)-31-((3-azidopropyl)carbamoyl)-25-benzyl-12-(3-chlorobenzyl)-40-(((3S,8R,9S,10R,13S,14S)-10,13-dimethyl-17-(pyridin-3-yl)-2,3,4,7,8,9,10,11,12,13,14,15-dodecahydro-1H-cyclopenta[a]phenanthren-3-yl)oxy)-28-(4-hydroxybenzyl)-5,13,20,23,26,29,37,40-octaoxo-4,6,12,19,24,27,30,36-octaazatetracontane-1,3,7-tricarboxylic acid” showed a conjugation yield in data set [1] (conjugation step) of 85%. Also, in data set [1] (setting [3]), the “final LC-MS purity” value was 97% and the “purity (crude or final not stated)” value was found to be 97%. In the case of “N2-((7S,11S)-7,11-bis(tert-butoxycarbonyl)-16-(4-(tert-butoxycarbonyl)benzyl)-2,2-dimethyl-4,9,17,24-tetraoxo-3-oxa-8,10,16,23-tetraazaheptacosan-27-oyl)-L-phenylalanyl-L-phenylalanyl-N6-(tert-butoxycarbonyl)-L-lysine”, the isolated yield in data set [2] is 95%.

Substance “N2-((S)-2-((S)-2-((7S,11S)-7,11-bis(tert-butoxycarbonyl)-16-(4-(tert-butoxycarbonyl)benzyl)-2,2-dimethyl-4,9,17,24-tetraoxo-3-oxa-8,10,16,23-tetraazaheptacosan-27-amido)-3-phenylpropanamido)-3-(4-(tert-butoxy)phenyl)propanoyl)-N6-(tert-butoxycarbonyl)-L-lysine” yielded an isolated yield in data set [2] of 76%. The same measure, in the same setting: in the case of “N2-((S)-2-((S)-2-((7S,11S)-16-(4-bromobenzyl)-7,11-bis(tert-butoxycarbonyl)-2,2-dimethyl-4,9,17,24-tetraoxo-3-oxa-8,10,16,23-tetraazaheptacosan-27-amido)-3-phenylpropanamido)-3-(4-(tert-butoxy)phenyl)propanoyl)-N6-(tert-butoxycarbonyl)-L-lysine” it was 40%. “tri-tert-butyl (10S,13S,16S,34S,38S)-10-((3-azidopropyl)carbamoyl)-13,16-dibenzyl-29-(4-(tert-butoxycarbonyl)benzyl)-2,2-dimethyl-4,12,15,18,21,28,36-heptaoxo-3-oxa-5,11,14,17,22,29,35,37-octaazatetracontane-34,38,40-tricarboxylate” displayed a step yield in data set [1] (late stage modification step) of 47% yield.

On to “tri-tert-butyl (10S,13S,16S,34S,38S)-10-((3-azidopropyl)carbamoyl)-16-benzyl-13-(4-(tert-butoxy)benzyl)-29-(3-chlorobenzyl)-2,2-dimethyl-4,12,15,18,21,28,36-heptaoxo-3-oxa-5,11,14,17,22,29,35,37-octaazatetracontane-34,38,40-tricarboxylate”, for which, in data set [1] (late stage modification step), the step yield came out at 81%. Same read-out and setting: in the case of “tri-tert-butyl (10S,13S,16S,34S,38S)-10-((3-azidopropyl)carbamoyl)-16-benzyl-29-(4-bromobenzyl)-13-(4-(tert-butoxy)benzyl)-2,2-dimethyl-4,12,15,18,21,28,36-heptaoxo-3-oxa-5,11,14,17,22,29,35,37-octaazatetracontane-34,38,40-tricarboxylate” it was 76%.

The record behind these values is PMC10380083 (International Journal of Molecular Sciences, 2023).
